Measured values published in paper PMC10547647.

Tests used:
Assay in all cases: co-IP; endogenous proteins of BxPC-3; IP with anti-CDC25A, CDC25C, CHK1 or 14–3-3ξ antibody, rabbit IgG as negative control; Western blot
[1] = molecular target: T1, CDC25C, endogenous (human (endogenous in BxPC-3)) (UniProt P30307)
T1 sequence: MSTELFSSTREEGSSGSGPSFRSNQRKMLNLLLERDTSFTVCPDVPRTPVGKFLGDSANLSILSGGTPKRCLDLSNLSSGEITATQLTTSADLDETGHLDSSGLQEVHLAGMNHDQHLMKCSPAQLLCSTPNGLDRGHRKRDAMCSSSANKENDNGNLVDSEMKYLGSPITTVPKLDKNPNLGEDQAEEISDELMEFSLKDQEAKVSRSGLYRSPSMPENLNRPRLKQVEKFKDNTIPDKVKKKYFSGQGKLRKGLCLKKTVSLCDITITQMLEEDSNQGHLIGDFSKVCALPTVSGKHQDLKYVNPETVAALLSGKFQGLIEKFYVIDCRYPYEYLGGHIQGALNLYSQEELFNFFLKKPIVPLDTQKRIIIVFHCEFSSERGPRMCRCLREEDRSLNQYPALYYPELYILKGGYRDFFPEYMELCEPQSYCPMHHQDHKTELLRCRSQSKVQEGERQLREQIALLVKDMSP

[2] = molecular target: T2, Cell division cycle 25A (CDC25A), endogenous (human (endogenous in BxPC-3)) (UniProt P30304)
T2 sequence: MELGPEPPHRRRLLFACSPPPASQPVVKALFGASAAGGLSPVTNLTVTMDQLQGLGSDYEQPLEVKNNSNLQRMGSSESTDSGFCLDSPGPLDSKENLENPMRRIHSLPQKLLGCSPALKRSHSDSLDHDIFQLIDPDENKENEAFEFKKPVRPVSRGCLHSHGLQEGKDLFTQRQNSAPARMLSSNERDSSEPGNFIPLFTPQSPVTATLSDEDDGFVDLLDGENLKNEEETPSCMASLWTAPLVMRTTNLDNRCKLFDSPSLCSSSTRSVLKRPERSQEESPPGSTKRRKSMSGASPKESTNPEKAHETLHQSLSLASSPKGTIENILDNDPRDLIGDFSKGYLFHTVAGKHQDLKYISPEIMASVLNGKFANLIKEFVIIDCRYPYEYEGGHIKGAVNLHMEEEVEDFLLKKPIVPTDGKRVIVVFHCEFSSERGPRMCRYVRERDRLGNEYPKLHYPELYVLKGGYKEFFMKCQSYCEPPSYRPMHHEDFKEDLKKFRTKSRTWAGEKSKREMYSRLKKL

[3] = molecular target: T3, Cycle checkpoint kinase 1 (CHK1), endogenous (human (endogenous in BxPC-3)) (UniProt O14757)
T3 sequence: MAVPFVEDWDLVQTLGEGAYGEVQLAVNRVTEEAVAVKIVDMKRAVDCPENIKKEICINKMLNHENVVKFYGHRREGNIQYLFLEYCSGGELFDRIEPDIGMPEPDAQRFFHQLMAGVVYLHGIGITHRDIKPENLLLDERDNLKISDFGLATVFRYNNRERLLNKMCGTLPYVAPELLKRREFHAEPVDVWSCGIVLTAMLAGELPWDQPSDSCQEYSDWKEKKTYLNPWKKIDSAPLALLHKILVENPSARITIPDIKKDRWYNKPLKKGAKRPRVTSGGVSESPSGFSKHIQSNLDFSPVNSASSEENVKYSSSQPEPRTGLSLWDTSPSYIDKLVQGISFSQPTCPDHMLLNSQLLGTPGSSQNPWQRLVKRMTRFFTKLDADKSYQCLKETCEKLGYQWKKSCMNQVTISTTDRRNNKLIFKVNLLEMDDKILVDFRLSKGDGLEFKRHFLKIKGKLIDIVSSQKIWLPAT

Measured: binding

Four-and-a-half LIM domain protein 1 (FHL1), endogenous (from UniProt Q13642-1)
binds: all assays above

These are yes or no findings as the source states them, for the method shown. In cells and extracts the contact can be indirect. Binding can be weak; no strength is given.
